# From PubChem BioAssay AID1439 (NMMLSC, 2008)
# Sequences of proteins named here, by UniProt entry; tags and fusion partners are left off.
# UniProt P09471, whole entry, looked up: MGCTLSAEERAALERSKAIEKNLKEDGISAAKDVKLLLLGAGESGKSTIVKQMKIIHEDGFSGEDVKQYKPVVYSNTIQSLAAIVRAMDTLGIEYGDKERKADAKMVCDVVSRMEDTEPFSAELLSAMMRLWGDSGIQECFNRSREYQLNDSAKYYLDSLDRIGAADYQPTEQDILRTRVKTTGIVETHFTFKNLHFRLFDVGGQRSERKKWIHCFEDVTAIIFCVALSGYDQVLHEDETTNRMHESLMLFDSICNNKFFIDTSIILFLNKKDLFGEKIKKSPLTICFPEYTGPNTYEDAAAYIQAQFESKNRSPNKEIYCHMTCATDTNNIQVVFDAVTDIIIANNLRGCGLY
# The campaign covered roughly 220,000 compounds. About 770 (0.35%) were called active. This list was built around the results that the source calls inconclusive (neither active nor inactive); the mix of calls is not that of the screen. Rule as the data show it: active = binding response below about 49% or above about 150%; inconclusive = no clear call, values can overlap the other calls; inactive = in between.
# Biological target: Guanine nucleotide-binding protein G(o) subunit alpha (Homo sapiens) (UniProt P09471)
# Experiment: RGS7-Galphao binding modulators, primary screen, biochemical, multiplexed bead flow cytometry (AID 1439);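 also: fluorescent Galphao held in activated GDP-AlF4 state binding bead-coupled RGS7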
# Settings: at 10 µM, actives lie on both sides
row,Compound,binding response (% of control)
1,CN(C)S(=O)(=O)c1ccc(=S)[nH]c1,inconclusive: 80.7%
2,O=C(c1cc([N+](=O)[O-])ccc1Cl)N1c2ccccc2Sc2ccccc21,inactive: 102%
3,NC(=O)CC(NC(=O)Cc1cccc2ccccc12)c1ccc(NCc2ccccc2)c([N+](=O)[O-])c1 (centres undefined),inconclusive: 88.3%
4,Cc1cc(C)c2c(=O)c(/C=C3\NC(=S)NC3=O)coc2c1,inconclusive: 106%
5,CCc1ccc(-c2ccc(SCC(=O)NCC3CCCO3)nn2)cc1 (centres undefined),inactive: 108%
6,Cc1sc2ncnc(OCC(=O)NC3CCS(=O)(=O)C3)c2c1C (centres undefined),inconclusive: 101%
7,CCOCCCn1c(C)nc2c[n+](CC(=O)c3ccc4ccccc4c3)cc(Br)c21,inconclusive: 86.5%
8,Cc1nc(Nc2ccccc2)sc1C(=O)Nc1ccccc1,inconclusive: -84.6%
9,CCn1cc(C(=O)NCCCN2CCCCCC2)c(=O)c2cc(S(=O)(=O)N3CCc4ccccc4C3)ccc21,inactive: 103%
10,CC(=O)Nc1ccc(-c2csc(N/N=C\c3ccncc3)n2)cc1,inconclusive: 99.6%
11,CC(C)CCNC(=O)NC(=O)CSc1ncccn1,inconclusive: 74.5%
12,NNC(=O)C1CC1(c1ccccc1)c1ccccc1 (centres undefined),inconclusive: 87%
13,COC(=O)CC1C(=O)NCCN1C(=O)c1sc2ccccc2c1Cl (centres undefined),inconclusive: 114%
14,CC(C)Cc1csc(NC(=O)C(C)C)c1C(=O)O,inconclusive: 117%
15,Cc1ccc(NC(=O)COC(=O)CCc2nc3ccccc3c(=O)[nH]2)cc1Cl,inactive: 98.4%
16,CCOCc1c(C(=O)OCC(=O)/C(C#N)=C(\C)N)oc2ccccc12,inconclusive: 103%
17,CCC(C)(C)C1CCc2[nH]nc(C(=O)NN)c2C1 (centres undefined),inconclusive: 96.2%
18,CN1CCN(CC(=O)Nc2cc(N(C)C)nc3ccccc23)CC1,inconclusive: 96.8%
19,CSc1nnc(-c2cccc(NC(=O)c3ccccc3)c2)n1C,inconclusive: 51.8%
20,Cc1cc(C)c2c3c(sc2n1)C(=O)N(c1ccccc1)CC(=O)N3,inconclusive: 20.2%
21,COc1cccc(C2=NN(C(=O)CCCC(=O)O)C(c3cccs3)C2)c1 (centres undefined),inconclusive: 84%
22,CCC[N+]1(CC#CC(O)(c2ccccc2)C2CCCCC2)CCCCC1 (centres undefined),inconclusive: 81.6%
23,Cn1c(=O)n(C)c2cc(NC(=O)c3cccc([N+](=O)[O-])c3)c(Br)cc21,inconclusive: 103%

# Copied from the list:
# binding response (% of control), `CCC(C)(C)C1CCc2[nH]nc(C(=O)NN)c2C1` (centres undefined) is entered as inconclusive: 96.2%
# binding response (% of control), `Cc1cc(C)c2c3c(sc2n1)C(=O)N(c1ccccc1)CC(=O)N3` is entered as inconclusive: 20.2%
# binding response (% of control), `Cc1ccc(NC(=O)COC(=O)CCc2nc3ccccc3c(=O)[nH]2)cc1Cl` is entered as inactive: 98.4%
# binding response (% of control), `Cc1nc(Nc2ccccc2)sc1C(=O)Nc1ccccc1` is entered as inconclusive: -84.6%
# binding response (% of control), `COC(=O)CC1C(=O)NCCN1C(=O)c1sc2ccccc2c1Cl` (centres undefined) is entered as inconclusive: 114%

# (listing goes on)

row,Compound,binding response (% of control)
1,ON(Cc1c(F)cccc1Cl)Cc1c(F)cccc1Cl,inconclusive: 91.9%
2,COc1ccc(OC)c2c(C)cc(C)nc12,inactive: 101%
3,CCN1CCN(c2cc(C)c3cc(NC(=S)N4CC(C)CC(C)C4)ccc3n2)CC1 (centres undefined),inconclusive: 93%
4,Cc1[nH]c(=O)[nH]c(=O)c1S(=O)(=O)N1CCCC(C(=O)NCc2ccc3c(c2)OCO3)C1 (centres undefined),inconclusive: 103%
5,O=C(Nc1ccccc1)c1cccc(=O)o1,inconclusive: 139%
6,CCCCC1=CC2=CC(=O)C(C)(OC(=O)CCc3ccccc3)C(=O)C2=CO1 (centres undefined),inconclusive: 44.4%
7,Clc1ccccc1OCc1nnc2n1CCCCC2,inconclusive: 103%
8,CCOC(=O)c1nnn2c1nc(N1CCOCC1)c1ccccc12,inconclusive: 81.6%
9,O=C(/C=C/c1ccc2ccccc2n1)c1cc(Br)ccc1O,inconclusive: 44.2%
10,CC(C)(C)c1cc(NC(=O)c2cccc([N+](=O)[O-])c2)no1,inconclusive: 112%
11,CCN1CCN(CC(=O)N2CCCC(C(=O)c3ccc(Oc4ccccc4)cc3)C2)CC1 (centres undefined),inactive: 96.3%
12,O=C(O)CS(=O)(=O)c1ccc(C(F)(F)F)cn1,inactive: 104%
13,COc1ccc(-c2oc3cc(O)c(OC)c(O)c3c(=O)c2OC)cc1,inconclusive: 89.4%
14,[O-][n+]1onc2c1CCC(=N/O)/C2=N\Nc1ccccc1,inconclusive: 50.6%
15,CCc1ccc(-c2nc(NC(=S)NC(=O)c3cccs3)sc2C)cc1,inactive: 114%
16,Cc1ccc(NC(=O)COC(=O)c2ccc(OCc3c(C)noc3C)cc2)cc1S(=O)(=O)N1CCOCC1,inactive: 100%
17,CCC(C)(C(=O)NC1CCCCC1)N(C(=O)CC1NC(=O)NC1=O)c1c(C)n(C)n(-c2ccccc2)c1=O (centres undefined),inactive: 101%
18,Cc1cccc(N2C(=O)/C(=C/c3cccnc3)SC2=S)c1,inconclusive: 102%
19,CCc1ccc(S(=O)(=O)/N=C2\C=CC(=O)c3ccccc32)cc1,inactive: 89%
20,Cc1sc2ncn(CC(=O)NCCCC(=O)N3CCN(Cc4ccc5c(c4)OCO5)CC3)c(=O)c2c1C,inconclusive: 100%
21,CCOCCNC(=O)c1ccccc1C(=O)NCCOCC,inactive: 99.5%
22,CC(C)=CCC/C(C)=C/CC/C(C)=C/CC/C(C)=C/CC1=C(C)C(=O)c2ccccc2C1=O,inconclusive: 83.5%
23,COc1ccccc1Cn1c(C)nnc1-c1cnn(C)c1N,inconclusive: 102%

row,Compound,binding response (% of control)
1,CCCOc1ccc(N2C(=O)CC(N(CCc3ccc(OC)c(OC)c3)C(=O)c3ccccc3)C2=O)cc1 (centres undefined),inconclusive: 97.2%
2,Cc1cc(-c2ccc(Br)s2)nc(-n2cccc2)n1,inconclusive: 133%
3,CC(C)N1CCC(=NNC(=O)c2ccc(Br)o2)CC1,inactive: 97.3%
4,NNC(=O)c1ccc(COc2ccc3ccccc3c2)cc1,inconclusive: 88.1%
5,Nc1nc(SCC(=O)Nc2ccc(OCc3ccccc3)cc2)n[nH]1,inconclusive: 76.1%
6,CCCN(CCC)S(=O)(=O)c1ccc(C(=O)NNC(=O)c2cc(OC)c(OC)c(OC)c2)cc1,inconclusive: 98%
7,N#Cc1c2c(c[nH]c1=O)CCN2Cc1ccccc1,inactive: 103%
8,CCc1n[nH]c(=S)n1/N=C/c1ccccc1OCc1ccc(Cl)cc1,inconclusive: 70.5%
9,NNC(=O)c1nc[nH]c1C(=O)Nc1ccccn1,inconclusive: 99.5%
10,O=c1cc(COc2ncnc3c(Cl)cc(Cl)cc23)nc2sccn12,inconclusive: 82.2%
11,COc1ccc([N+](=O)[O-])cc1/C=N/Nc1nn[nH]n1,inactive: 94.7%
12,CCP(=O)(c1cccc([N+](=O)[O-])c1)c1cccc([N+](=O)[O-])c1,inconclusive: -23%
13,C=CC[N+](C)(C)CCN1C(=O)C2C(c3ccccc3)C=CC(c3ccccc3)C2C1=O (centres undefined),inconclusive: 118%
14,Cc1ccc(-c2csnn2)cc1,inconclusive: 201%
15,Cc1cccc(C)c1NC(=S)N1CCOCC1,inconclusive: 4.01%
16,O=C(Nc1ccon1)C12CC3CC(C1)CC(n1cnc([N+](=O)[O-])n1)(C3)C2,inconclusive: 141%
17,FC(F)(F)c1ccc(Oc2ccc3ccccc3c2Br)nc1,inactive: 102%
18,CC(C)(C)C(=O)NNC(=O)c1cc(C(C)(C)C)nn1Cc1ccccc1,inconclusive: 97.2%
19,CCOC(=O)c1c(C)[nH]c(C(=O)Cn2nnc(-c3ccccc3)n2)c1C,inactive: 105%
20,Cc1nc2ccc(NC(=O)N(C(C)C)C(C)C)cc2s1,active: 169% [activator]
21,CCCNC(=O)c1ccc2c(=O)c(O)c(-c3ccc(OC)cc3)[nH]c2c1,inconclusive: 102%
22,CCC(=O)c1c[nH]c(C(=O)NCc2cccs2)c1,inconclusive: 113%
23,COCC(C)n1c(C)cc(C(=O)COC(=O)CCc2nc3ccccc3c(=O)[nH]2)c1C (centres undefined),inconclusive: 77.4%
